Patent US6841385B2, “Transcription factor E2F DNA-binding domain inhibitor peptides and their use” (Topotarget UK Limited, priority 1999, dated 2005)
Part of at least one peptide drawing is inferred or uncertain, most often the ends. Some compounds share one wording; it may come from a single statement. Bridge positions count the residues as written; N and C are the ends. Square brackets hold non-standard residues; d marks the D form. Ends that are not written are not given here. Peptide text beside a SMILES is read from it. I, II: the chains in the order shown. βAla = NCCC(=O)O

The chains behind the UniProt entries cited, without tags or fusion partners. Where a name states a change or a piece, a line headed by the entry shows the natural chain unless it says otherwise. Residues count along the entry.
UniProt P23708: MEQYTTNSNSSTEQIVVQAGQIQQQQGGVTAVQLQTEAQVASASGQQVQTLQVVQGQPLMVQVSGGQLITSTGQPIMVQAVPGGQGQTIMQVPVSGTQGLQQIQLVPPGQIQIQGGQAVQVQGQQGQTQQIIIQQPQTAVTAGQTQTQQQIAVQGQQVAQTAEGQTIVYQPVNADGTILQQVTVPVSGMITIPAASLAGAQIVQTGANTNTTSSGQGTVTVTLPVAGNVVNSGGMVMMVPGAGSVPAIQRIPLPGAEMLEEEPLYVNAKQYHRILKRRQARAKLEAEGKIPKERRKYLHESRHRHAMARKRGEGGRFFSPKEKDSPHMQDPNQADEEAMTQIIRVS
UniProt P63139: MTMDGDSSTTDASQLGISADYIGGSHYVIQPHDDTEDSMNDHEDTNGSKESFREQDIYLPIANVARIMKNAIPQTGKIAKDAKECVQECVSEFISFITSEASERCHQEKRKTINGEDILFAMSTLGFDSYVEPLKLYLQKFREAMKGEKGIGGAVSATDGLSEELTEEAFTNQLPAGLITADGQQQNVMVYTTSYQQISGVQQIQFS
UniProt P70353: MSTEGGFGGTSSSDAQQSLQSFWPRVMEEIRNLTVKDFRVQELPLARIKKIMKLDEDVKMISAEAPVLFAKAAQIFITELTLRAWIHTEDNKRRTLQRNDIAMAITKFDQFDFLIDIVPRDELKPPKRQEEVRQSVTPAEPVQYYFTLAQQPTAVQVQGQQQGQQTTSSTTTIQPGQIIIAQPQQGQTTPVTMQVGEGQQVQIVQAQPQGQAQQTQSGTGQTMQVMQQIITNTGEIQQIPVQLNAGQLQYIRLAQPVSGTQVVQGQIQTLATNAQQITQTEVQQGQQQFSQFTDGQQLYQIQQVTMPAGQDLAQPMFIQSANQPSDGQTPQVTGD
UniProt P08047, whole entry: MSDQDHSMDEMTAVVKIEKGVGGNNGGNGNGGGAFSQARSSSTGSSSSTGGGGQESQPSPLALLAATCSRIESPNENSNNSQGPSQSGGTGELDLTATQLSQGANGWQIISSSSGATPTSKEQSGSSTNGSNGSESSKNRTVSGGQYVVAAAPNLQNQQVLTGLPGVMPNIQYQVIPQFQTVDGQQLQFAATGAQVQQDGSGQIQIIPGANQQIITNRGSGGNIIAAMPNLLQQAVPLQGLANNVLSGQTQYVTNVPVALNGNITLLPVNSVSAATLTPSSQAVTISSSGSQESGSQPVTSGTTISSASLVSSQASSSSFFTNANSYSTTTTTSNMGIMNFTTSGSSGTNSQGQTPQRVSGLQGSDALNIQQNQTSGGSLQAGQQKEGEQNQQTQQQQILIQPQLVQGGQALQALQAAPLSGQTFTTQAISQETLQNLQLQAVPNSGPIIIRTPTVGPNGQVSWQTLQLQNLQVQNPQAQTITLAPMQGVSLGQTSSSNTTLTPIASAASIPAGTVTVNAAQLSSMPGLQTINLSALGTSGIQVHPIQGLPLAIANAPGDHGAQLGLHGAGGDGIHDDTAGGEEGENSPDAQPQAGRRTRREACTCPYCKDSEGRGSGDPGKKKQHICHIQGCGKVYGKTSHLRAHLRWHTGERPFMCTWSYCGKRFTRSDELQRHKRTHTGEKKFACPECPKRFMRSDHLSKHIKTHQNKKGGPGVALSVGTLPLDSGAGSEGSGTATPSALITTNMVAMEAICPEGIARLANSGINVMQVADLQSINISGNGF
UniProt Q01094, 64-301: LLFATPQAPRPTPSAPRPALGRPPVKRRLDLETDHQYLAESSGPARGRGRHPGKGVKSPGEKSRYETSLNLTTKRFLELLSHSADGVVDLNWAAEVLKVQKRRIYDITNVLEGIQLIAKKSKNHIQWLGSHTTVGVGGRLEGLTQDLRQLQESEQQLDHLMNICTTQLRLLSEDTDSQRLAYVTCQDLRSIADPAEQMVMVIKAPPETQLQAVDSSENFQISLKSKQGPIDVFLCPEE

Legend:
NFY = target: T1, NFY (Mus musculus, UniProt P23708+P63139+P70353); assay: Band shift assay with unrelated NFY binding site, transfected 3T3 cells; conditions: same condition as the 3T3 E2F experiments
T1 construct: endogenous in cells; host or cells: stably transfected 3T3 cells, nuclear extract

Sp1 = target: T2, Sp1 (Homo sapiens, UniProt P08047); assay: Band shift assay with unrelated Sp1 binding site, nuclear extracts; conditions: Sp1 probe
T2 construct: endogenous in cells; host or cells: F9 and/or HeLa nuclear extract

ATF = assay: Band shift assay with unrelated ATF binding site (control oligo), nuclear extracts
E2F [1] = assay: Band shift assay, E2F DNA-binding in nuclear extracts from HeLa cells; conditions: for IC50: HeLa nuclear extract, read-out: IC50, inhibition of E2F DNA-binding
E2F [2] = assay: Band shift assay, E2F DNA-binding in nuclear extracts from F9 embryonal carcinoma cells; conditions: for IC50: F9 nuclear extract, read-out: IC50, inhibition of E2F DNA-binding
recombinant E2F1 and DP1 = target: T3, recombinant E2F1 and DP1 (Homo sapiens, UniProt Q01094); assay: Band shift assay with recombinant E2F1 and DP1, B-myb E2F-binding site as probe
T3 construct: Purified E2F1 N1-His (64-301) and DP1 N2-GST (84-249) were incubated at 10 μg/ml; His; made in house; host or cells: E. coli BL21 DE3 (pET28b) for E2F1
Method: N-terminal fragments of human E2F1 (aa 64-301), E2F2 (aa 69-306), E2F3 (aa 128-356), E2F4 (aa 1-198), E2F5 (aa 42-233) were cloned into bacterial expression vector pET28b (Novagen) and were purified from BL21 DE3 cells by immobilised metal-affinity chromatography. A N-terminal fragment of DP1 (aa 85-249) was expressed as GST fusion protein and purified by glutathione-affinity chromatography.
Purified E2F1 N1-His (64-301) and DP1 N2-GST (84-249) were incubated at 10 μg/ml in a buffer containing 10 mM HEPES, […], 1 mM EDTA, […], 33 mg/ml BSA and 0.1 μg of sonicated salmon sperm for 10 minutes on ice. ^32P-labelled probe was added and the reaction mixture was incubated at room temperature for 20 minutes. Probes were labelled by filling-in 5′ overhanging ends of 4-7 bases. Samples were run on 4% non denaturing polyacrylamide gel in 0.5% TBE at 4° C. Gels were exposed to X-ray films. Nuclear extract (3 μg) was incubated in 17 μl buffer containing 0.3 M NaCl, 0.4 M Tris pH 7.9, 100 mM EDTA, 0.4 M DTT, 13% glycerol, 1 μg of sonicated salmon sperm on ice. The samples were then incubated for 10 minutes at 30° C. and cooled on ice. ^32P-labelled probe was added, the reaction mixtures were incubated for another 10 minutes at 30° C. and then cooled on ice. […]
The inhibitory potential of the peptides on E2F function was analysed in band shift assays with recombinant E2F1 and DP1. […]

I: GSRILTFRSGSWYASKK[βAla] / II: GSRILTFRSGSWYASK / III: GSRILTFRSGSWYAS / IV: GSRILTFRSGSWYAS (amide I:16-IV:C, I:17-II:C, II:16-III:C (inferred)) [MAP4-SEQ ID NO:5]
inhibition with unrelated binding site NFY (NFY): No inhibition
inhibition with unrelated binding site Sp1 (Sp1): No inhibition
inhibition with unrelated binding site ATF (ATF): No inhibition
IC50 (E2F [1]): ~10 µM
IC50 (E2F [2]): ~10 µM

CC(C)[C@H](NC(=O)[C@@H](N)Cc1c[nH]c2ccccc12)C(=O)N[C@@H](CCCNC(=N)N)C(=O)N[C@@H](Cc1c[nH]c2ccccc12)C(=O)N[C@@H](Cc1c[nH]cn1)C(=O)N[C@@H](Cc1ccccc1)C(=O)O [SEQ ID NO:2, WVRWHF] (H-WVRWHF-OH)
inhibition (recombinant E2F1 and DP1; SEQ ID NO: 2 Alanine-scanning): 0
inhibition of E2F DNA-binding (E2F [1]; up to 500 μM, nuclear extracts): No inhibition
inhibition of E2F DNA-binding (E2F [2]; up to 500 μM, nuclear extracts): No inhibition

CC[C@H](C)[C@H](NC(=O)[C@H](CCCNC(=N)N)NC(=O)[C@H](CO)NC(=O)CN)C(=O)N[C@@H](CC(C)C)C(=O)N[C@H](C(=O)N[C@@H](Cc1ccccc1)C(=O)N[C@@H](CCCNC(=N)N)C(=O)N[C@@H](CO)C(=O)NCC(=O)N[C@@H](CO)C(=O)N[C@@H](Cc1c[nH]c2ccccc12)C(=O)N[C@@H](Cc1ccc(O)cc1)C(=O)N[C@@H](C)C(=O)N[C@@H](CO)C(=O)O)[C@@H](C)O [SEQ ID NO:5, GSRILTFRSGSWYAS] (H-GSRILTFRSGSWYAS-OH)
inhibition with unrelated binding site Sp1 (Sp1): No inhibition
inhibition with unrelated binding site ATF (ATF): No inhibition
IC50 (E2F [1]): ~100 µM
IC50 (E2F [2]): ~100 µM

CC(C)[C@H](NC(=O)[C@@H](N)Cc1c[nH]c2ccccc12)C(=O)N[C@@H](CCCNC(=N)N)C(=O)N[C@@H](Cc1c[nH]c2ccccc12)C(=O)N[C@@H](Cc1c[nH]cn1)C(=O)N[C@@H](Cc1ccccc1)C(=O)NCCCC[C@H](NC(=O)[C@H](Cc1ccccc1)NC(=O)[C@H](Cc1c[nH]cn1)NC(=O)[C@H](Cc1c[nH]c2ccccc12)NC(=O)[C@H](CCCNC(=N)N)NC(=O)[C@@H](NC(=O)[C@@H](N)Cc1c[nH]c2ccccc12)C(C)C)C(=O)NCCCC[C@H](NC(=O)[C@H](CCCCNC(=O)[C@H](Cc1ccccc1)NC(=O)[C@H](Cc1c[nH]cn1)NC(=O)[C@H](Cc1c[nH]c2ccccc12)NC(=O)[C@H](CCCNC(=N)N)NC(=O)[C@@H](NC(=O)[C@@H](N)Cc1c[nH]c2ccccc12)C(C)C)NC(=O)[C@H](Cc1ccccc1)NC(=O)[C@H](Cc1c[nH]cn1)NC(=O)[C@H](Cc1c[nH]c2ccccc12)NC(=O)[C@H](CCCNC(=N)N)NC(=O)[C@@H](NC(=O)[C@@H](N)Cc1c[nH]c2ccccc12)C(C)C)C(=O)NCCC(=O)O [MAP4-SEQ ID NO:2] (I: H-WVRWHFKK[βAla]-OH / II: H-WVRWHFK / III: H-WVRWHF / IV: H-WVRWHF; amide I:7-IV:C, I:8-II:C, II:7-III:C (inferred); N-terminus and C-terminus assumed)
inhibition with unrelated binding site NFY (NFY): No inhibition
inhibition with unrelated binding site ATF (ATF): no inhibition
fold lower IC50 values (recombinant E2F1 and DP1; branched MAP molecule versus the monomeric peptides): Approximately 100 fold
